Laboratory results as given in paper PMC4641468.
These are yes or no findings as the source states them, for the method shown. Binding seen in cells or lysates may run through a third protein. Some binding calls cover weakened binding; strength is not graded here.

Amino acid sequences for entries named in this document (tags omitted).
UniProt Q6ZPR4: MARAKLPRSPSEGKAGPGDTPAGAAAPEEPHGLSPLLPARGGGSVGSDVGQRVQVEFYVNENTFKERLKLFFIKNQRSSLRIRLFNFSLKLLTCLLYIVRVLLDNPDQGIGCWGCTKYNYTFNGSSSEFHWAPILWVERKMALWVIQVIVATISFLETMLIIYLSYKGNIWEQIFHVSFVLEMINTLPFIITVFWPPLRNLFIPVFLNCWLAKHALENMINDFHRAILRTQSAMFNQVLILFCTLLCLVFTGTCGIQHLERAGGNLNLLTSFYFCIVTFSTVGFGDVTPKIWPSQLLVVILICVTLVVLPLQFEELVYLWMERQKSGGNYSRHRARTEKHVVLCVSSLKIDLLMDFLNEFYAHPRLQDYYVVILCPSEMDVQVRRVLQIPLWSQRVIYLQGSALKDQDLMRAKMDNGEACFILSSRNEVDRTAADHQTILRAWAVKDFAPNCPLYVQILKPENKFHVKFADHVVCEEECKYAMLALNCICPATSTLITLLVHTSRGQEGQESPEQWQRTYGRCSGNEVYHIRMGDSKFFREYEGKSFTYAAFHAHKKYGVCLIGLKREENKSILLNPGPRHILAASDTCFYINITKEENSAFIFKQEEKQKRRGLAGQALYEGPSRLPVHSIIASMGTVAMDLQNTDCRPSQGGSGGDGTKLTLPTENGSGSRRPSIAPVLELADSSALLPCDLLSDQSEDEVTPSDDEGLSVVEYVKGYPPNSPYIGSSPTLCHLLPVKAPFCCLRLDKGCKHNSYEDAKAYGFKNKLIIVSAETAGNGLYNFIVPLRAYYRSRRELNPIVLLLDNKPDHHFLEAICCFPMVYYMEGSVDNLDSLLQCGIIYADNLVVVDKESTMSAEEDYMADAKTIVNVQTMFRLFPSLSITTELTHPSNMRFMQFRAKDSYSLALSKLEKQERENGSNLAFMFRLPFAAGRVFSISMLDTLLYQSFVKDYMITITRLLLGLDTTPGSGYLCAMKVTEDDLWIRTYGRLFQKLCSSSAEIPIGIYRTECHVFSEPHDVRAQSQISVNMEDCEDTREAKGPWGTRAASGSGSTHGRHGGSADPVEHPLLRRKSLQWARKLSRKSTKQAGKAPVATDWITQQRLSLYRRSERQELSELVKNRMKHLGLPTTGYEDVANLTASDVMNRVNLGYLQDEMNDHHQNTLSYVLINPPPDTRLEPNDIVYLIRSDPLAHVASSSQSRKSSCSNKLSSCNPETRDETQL

T1: Slo2.1 (Slick channel subunit, gene Kcnt2) (mouse (endogenous in mouse brain, DRG, spinal cord, cortex)) (UniProt D3Z649)
T1 sequence: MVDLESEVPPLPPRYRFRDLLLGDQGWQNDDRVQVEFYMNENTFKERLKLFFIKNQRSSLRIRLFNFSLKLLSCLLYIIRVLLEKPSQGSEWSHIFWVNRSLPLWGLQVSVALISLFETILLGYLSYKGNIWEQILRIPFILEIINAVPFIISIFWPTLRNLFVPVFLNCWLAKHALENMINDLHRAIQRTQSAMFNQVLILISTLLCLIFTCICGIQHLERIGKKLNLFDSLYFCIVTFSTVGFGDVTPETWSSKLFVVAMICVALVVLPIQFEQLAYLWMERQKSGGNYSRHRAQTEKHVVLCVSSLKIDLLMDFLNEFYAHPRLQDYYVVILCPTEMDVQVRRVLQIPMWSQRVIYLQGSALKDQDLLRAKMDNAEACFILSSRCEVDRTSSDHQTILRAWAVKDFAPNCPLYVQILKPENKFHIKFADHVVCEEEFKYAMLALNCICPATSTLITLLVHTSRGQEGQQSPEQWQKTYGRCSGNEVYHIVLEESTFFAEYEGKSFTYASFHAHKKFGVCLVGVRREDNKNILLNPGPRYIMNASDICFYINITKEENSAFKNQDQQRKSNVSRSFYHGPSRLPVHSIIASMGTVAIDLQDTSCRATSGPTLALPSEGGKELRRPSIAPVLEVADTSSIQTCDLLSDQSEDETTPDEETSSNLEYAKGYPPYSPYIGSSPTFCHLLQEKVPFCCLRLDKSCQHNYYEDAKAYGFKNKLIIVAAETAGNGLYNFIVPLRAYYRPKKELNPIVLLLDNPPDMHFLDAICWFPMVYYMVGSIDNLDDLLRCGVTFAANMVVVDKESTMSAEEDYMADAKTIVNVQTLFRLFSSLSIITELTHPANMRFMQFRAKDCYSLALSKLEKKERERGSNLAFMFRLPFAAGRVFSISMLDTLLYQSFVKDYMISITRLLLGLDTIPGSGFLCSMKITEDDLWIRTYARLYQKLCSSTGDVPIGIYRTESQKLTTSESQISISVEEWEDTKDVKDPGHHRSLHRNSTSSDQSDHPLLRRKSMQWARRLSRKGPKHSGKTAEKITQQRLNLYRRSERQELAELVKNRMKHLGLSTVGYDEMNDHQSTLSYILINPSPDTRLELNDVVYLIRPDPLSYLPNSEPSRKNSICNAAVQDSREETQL


Assays:
[1] = molecular target: T1, Slo2.1 (Slick channel subunit, gene Kcnt2) (mouse (endogenous in mouse brain, DRG, spinal cord, cortex)); experiment: co-IP; WT mouse tissues: DRG total protein (3 mg), spinal cord (1 mg) and cortex (0.3-0.5 mg) membrane proteins; sequential IP with anti-Slo2.1 or anti-Slo2.2 antibody and western blot for the other subunit
[2] = molecular target: T1, Slo2.1 (Slick channel subunit, gene Kcnt2) (mouse (endogenous in mouse brain, DRG, spinal cord, cortex)); experiment: co-IP; WT mouse whole brain membrane proteins (2% Triton X-100 lysis buffer), 62.5 ug protein per IP; IP with 8 ug monoclonal anti-mSlo2.1 (N11/33) or anti-mSlo2.2 (N3/26) and Protein A/G Plus agarose beads at 4°C, washed with 1% Triton X-100 in PBS; western blot for the other subunit; Slo2.1 KO and Slo2.2 KO membranes as controls
[3] = molecular target: T1, Slo2.1 (Slick channel subunit, gene Kcnt2) (mouse (endogenous in mouse brain, DRG, spinal cord, cortex)); experiment: condition: only the two subunits mixed after separate preparation of Slo2.2 KO and Slo2.1 KO brain membrane proteins; co-IP; mix of separately prepared Slo2.2 KO and Slo2.1 KO mouse brain membrane protein preparations; IP with anti-Slo2.1 antibody, western blot for Slo2.2; 62.5 ug protein per IP
[4] = molecular target: Slo2.2 (Slack channel subunit, gene Kcnt1) (mouse (endogenous in mouse brain, DRG, spinal cord, cortex)) (UniProt Q6ZPR4); experiment: co-IP; WT mouse tissues: DRG total protein (3 mg), spinal cord (1 mg) and cortex (0.3-0.5 mg) membrane proteins; sequential IP with anti-Slo2.1 or anti-Slo2.2 antibody and western blot for the other subunit
[5] = molecular target: Slo2.2 (Slack channel subunit, gene Kcnt1) (mouse (endogenous in mouse brain, DRG, spinal cord, cortex)) (UniProt Q6ZPR4); experiment: co-IP; WT mouse whole brain membrane proteins (2% Triton X-100 lysis buffer), 62.5 ug protein per IP; IP with 8 ug monoclonal anti-mSlo2.1 (N11/33) or anti-mSlo2.2 (N3/26) and Protein A/G Plus agarose beads at 4°C, washed with 1% Triton X-100 in PBS; western blot for the other subunit; Slo2.1 KO and Slo2.2 KO membranes as controls

| Molecule | binding [1] | binding [2] | binding [3] | binding [4] | binding [5] |
| --- | --- | --- | --- | --- | --- |
| Slo2.2 (Slack channel subunit, gene Kcnt1) (from UniProt Q6ZPR4 1-1224) | binds | binds | no binding |  |  |
| Slo2.1 (Slick channel subunit, gene Kcnt2) (protein, UniProt D3Z649 1-1135) MVDLESEVPPLPPRYRFRDLLLGDQGWQNDDRVQVEFYMNENTFKERLKLFFIKNQRSSLRIRLFNFSLKLLSCLLYIIRVLLEKPSQGSEWSHIFWVNRSLPLWGLQVSVALISLFETILLGYLSYKGNIWEQILRIPFILEIINAVPFIISIFWPTLRNLFVPVFLNCWLAKHALENMINDLHRAIQRTQSAMFNQVLILISTLLCLIFTCICGIQHLERIGKKLNLFDSLYFCIVTFSTVGFGDVTPETWSSKLFVVAMICVALVVLPIQFEQLAYLWMERQKSGGNYSRHRAQTEKHVVLCVSSLKIDLLMDFLNEFYAHPRLQDYYVVILCPTEMDVQVRRVLQIPMWSQRVIYLQGSALKDQDLLRAKMDNAEACFILSSRCEVDRTSSDHQTILRAWAVKDFAPNCPLYVQILKPENKFHIKFADHVVCEEEFKYAMLALNCICPATSTLITLLVHTSRGQEGQQSPEQWQKTYGRCSGNEVYHIVLEESTFFAEYEGKSFTYASFHAHKKFGVCLVGVRREDNKNILLNPGPRYIMNASDICFYINITKEENSAFKNQDQQRKSNVSRSFYHGPSRLPVHSIIASMGTVAIDLQDTSCRATSGPTLALPSEGGKELRRPSIAPVLEVADTSSIQTCDLLSDQSEDETTPDEETSSNLEYAKGYPPYSPYIGSSPTFCHLLQEKVPFCCLRLDKSCQHNYYEDAKAYGFKNKLIIVAAETAGNGLYNFIVPLRAYYRPKKELNPIVLLLDNPPDMHFLDAICWFPMVYYMVGSIDNLDDLLRCGVTFAANMVVVDKESTMSAEEDYMADAKTIVNVQTLFRLFSSLSIITELTHPANMRFMQFRAKDCYSLALSKLEKKERERGSNLAFMFRLPFAAGRVFSISMLDTLLYQSFVKDYMISITRLLLGLDTIPGSGFLCSMKITEDDLWIRTYARLYQKLCSSTGDVPIGIYRTESQKLTTSESQISISVEEWEDTKDVKDPGHHRSLHRNSTSSDQSDHPLLRRKSMQWARRLSRKGPKHSGKTAEKITQQRLNLYRRSERQELAELVKNRMKHLGLSTVGYDEMNDHQSTLSYILINPSPDTRLELNDVVYLIRPDPLSYLPNSEPSRKNSICNAAVQDSREETQL |  |  |  | binds | binds |
